From ChEMBL document CHEMBL3988442, “University of Dundee, Small-Polar-MMV Screening Library” (2021).

Chains of the proteins cited; added tags and fusions are not shown.
UniProt E9BF75, entry or part of it: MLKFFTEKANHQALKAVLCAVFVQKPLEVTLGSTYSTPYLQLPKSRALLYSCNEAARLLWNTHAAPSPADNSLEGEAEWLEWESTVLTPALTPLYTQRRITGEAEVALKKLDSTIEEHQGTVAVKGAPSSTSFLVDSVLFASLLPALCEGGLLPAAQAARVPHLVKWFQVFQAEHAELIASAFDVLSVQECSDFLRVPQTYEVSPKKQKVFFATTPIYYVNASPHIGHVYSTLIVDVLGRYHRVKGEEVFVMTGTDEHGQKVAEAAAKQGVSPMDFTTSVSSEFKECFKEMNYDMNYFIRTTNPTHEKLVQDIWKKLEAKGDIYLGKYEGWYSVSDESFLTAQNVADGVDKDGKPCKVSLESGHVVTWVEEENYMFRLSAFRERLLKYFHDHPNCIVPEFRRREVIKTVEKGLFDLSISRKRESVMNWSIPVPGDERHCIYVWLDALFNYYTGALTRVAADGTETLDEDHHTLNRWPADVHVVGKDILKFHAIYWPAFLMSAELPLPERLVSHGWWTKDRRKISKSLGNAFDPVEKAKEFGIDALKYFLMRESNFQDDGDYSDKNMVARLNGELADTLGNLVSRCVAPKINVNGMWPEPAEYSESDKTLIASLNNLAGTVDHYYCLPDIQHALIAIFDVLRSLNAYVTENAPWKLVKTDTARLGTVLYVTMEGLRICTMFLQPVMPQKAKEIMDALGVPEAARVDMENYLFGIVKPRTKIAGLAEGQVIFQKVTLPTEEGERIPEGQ

A: 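Methionyl-tRNA synthetase (putative), Leishmania donovani (UniProt E9BF75). Primary screen of methionyl-tRNA synthetase; the read-out is not stated. The test concentration is not given. Values are per cent inhibition. Size under these conditions: about 68,000 compounds, about 24 of them at 50% or above in at least one test.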
B: 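Assay on Mycobacterium tuberculosis, filed only as a heat shock assay from Cornell; the read-out is not stated. The concentration is filed as 10 mM, unlikely as a test dose, so the dose is not known. The record gives no direction; compounds that gave an IC50 in retests scored well above the rest, so higher reads as stronger inhibition. Of about 69,000 compounds tested this way, about 930 (1.4%) reached 50% or more in at least one test.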

Results are percentages, as filed. How 0% and 100% were set is not recorded. Most values in the screen are low, and negative values occur. Compounds were drawn at random from those tested, without regard to their results.

- Cc1nc(N2CCCOC(Cn3cccn3)C2)c2sccc2n1 (stereo unspecified) : A: 12.54%; B: -1.885%
- CN(C)C(=O)Cc1nc(CN2CCCCC2Cn2cccn2)cs1 (stereo unspecified) : A: 2.817%; B: -13.21%
- CCn1cc(CNC(=O)C2CCCC2)cn1 : A: 23.23%; B: 10.64%
- Cn1cc(C2CCCN2Cc2csc(C3CCCC3)n2)cn1 (stereo unspecified) : A: 14.93%; B: -3.478%
- COc1ccc(NC(=O)c2ccc(-n3ncc(C#N)c3N)cc2)cn1 : A: 7.981%; B: 33.44%
- Cc1noc(C)c1CNCC1COCc2c(-c3ccsc3)nnn2C1 (stereo unspecified) : A: 16.06%
- COc1ccc(CC2CCCN2CCCC#N)cc1 (stereo unspecified) : A: 12.81%; B: 8.364%
- CC(C)(C)CN(CCO)C(=O)Nc1cccc(N2CCNC2=O)c1 : A: 18.82%; B: -5.765%
- CC(NC(=O)COc1ccccc1I)C1CC1 (stereo unspecified) : A: 11.41%; B: 11.7%
- CCc1ccc(C(=O)N2CCCCC2CNS(C)(=O)=O)o1 (stereo unspecified) : A: 13.69%; B: -2.65%
- Cc1nn(C)c(N(C)C)c1CNCc1cccc(Cn2cncn2)c1 : A: 10.03%; B: 0.3405%
- c1cnc(-c2noc(C3CN(Cc4ccc5c(c4)CCO5)C3)n2)cn1 : A: 9.353%
- NCC1CCC2(CCN(C(=O)c3ccccn3)CC2)CO1 (stereo unspecified) : A: 15.5%
- O=C(C1=CCCC1)N1CCC2(CC1)CC(Oc1cccnc1)CO2 (stereo unspecified) : A: 7.5%
- Cc1cc(F)cc2c(NCC(C)(C)C(N)=O)c(C#N)cnc12 : A: 11.98%; B: 8.668%
- CS(=O)(=O)c1ccc(NC(=O)CSc2ccc3c(c2)CCC3)cc1 : A: -4.945%; B: -7.463%
- COC(=O)c1cc(C(=O)N2CCC(OC)CC2)n(-c2ccccc2)n1 : A: 17.49%; B: -31.25%
- O=C(CC(F)(F)F)N1CCc2onc(Cn3cccn3)c2C1 : A: 1.961%; B: 10.93%
- CNC(=O)CNC(=O)c1ccc(-c2scnc2C)nc1 : A: 19.81%; B: 10.79%
- c1cncc(CNc2ncnc3c2CCN(Cc2ccsc2)CC3)c1 : A: 22.29%; B: -16.67%
- O=C(NC1CCC(C(=O)N2CCSCC2)CC1)N1CCC1 (stereo unspecified) : A: 15.53%; B: -9.21%
- COc1cccc(-c2cc(CN)ccc2F)c1F : A: 11.5%; B: 6.068%
- Cc1cnn(CCNCc2ccc(C#N)cc2)c1 : A: 17.46%; B: -29.85%
- CNC(=O)c1cnc(/C=C/c2cc(OC)c(O)c(OC)c2)s1 : A: 18.13%; B: 2.186%
- NC(=O)NC(=O)Cn1ccc2sccc2c1=O : A: 22.53%; B: -42.2%
- COc1ccc(C(C)Nc2ncc(C(N)=O)cc2Cl)cc1OC (stereo unspecified) : A: 12.1%; B: 16.99%
- Cc1nn(C)cc1C(=O)NCc1cc(N(C)C)nc2ccccc12 : A: 10.97%; B: -4.528%
- CC(=O)c1c(F)cccc1N1CCC(CS(N)(=O)=O)CC1 : A: 13.5%; B: 7.065%
- COC(=O)CN1CC(c2nc(Cc3ccccc3)no2)C1.O=C(O)C(=O)O : B: -1.607%
- CC(C(=O)Nc1cnn(CC(N)=O)c1)c1ccc(Cl)s1 (stereo unspecified) : A: 3.896%; B: 2.124%
- CCN1CCOC(CNCc2ccc(OC)c(F)c2)C1 (stereo unspecified) : A: 1.099%; B: -0.07996%
- CCC(CO)N(Cc1ccco1)C(=O)c1cccnc1NC (stereo unspecified) : A: 5.333%; B: -15.19%
- O=C(NC1CCCN(CCCc2ccccc2)C1)c1ccc(Cl)s1 (stereo unspecified) : A: 10.14%; B: 6.068%
- O=C1CCCC2(CCN(C(=O)c3cnccn3)CC2)N1 : A: -62.22%; B: 8.891%
- O=C(CCN1CCCC(CC2CC2)(C(=O)O)C1)NC1CCCC1 (stereo unspecified) : A: -0.2817%; B: -4.912%
- CCN1CCCC12CCCN(c1ncccn1)C2 (stereo unspecified) : A: 6.383%
- CCn1cnnc1C1CCN(C(=O)c2cnc(C)s2)CC1 : A: 17.88%; B: -6.418%
- CC(c1cccc(S(N)(=O)=O)c1)N(C)CCc1ccccc1 (stereo unspecified) : A: 4.53%; B: 16.23%
- COCCN1CCC(NC(=O)C2(c3cc(C)cc(C)c3)CC2)CC1 : A: 11.02%; B: -5.482%
- Cc1ccc2cc(CNCCCO)c(=O)[nH]c2c1 : A: 9.247%; B: -2.502%